# Experimental data as given in the supplement of paper PMC10849652.
# Protein sequences, listed by entry. Tags and fused reporters are not part of them. Lines headed by an entry give the natural chain unless they say otherwise; changes in a name come on top.
# UniProt Q13547, whole entry, looked up: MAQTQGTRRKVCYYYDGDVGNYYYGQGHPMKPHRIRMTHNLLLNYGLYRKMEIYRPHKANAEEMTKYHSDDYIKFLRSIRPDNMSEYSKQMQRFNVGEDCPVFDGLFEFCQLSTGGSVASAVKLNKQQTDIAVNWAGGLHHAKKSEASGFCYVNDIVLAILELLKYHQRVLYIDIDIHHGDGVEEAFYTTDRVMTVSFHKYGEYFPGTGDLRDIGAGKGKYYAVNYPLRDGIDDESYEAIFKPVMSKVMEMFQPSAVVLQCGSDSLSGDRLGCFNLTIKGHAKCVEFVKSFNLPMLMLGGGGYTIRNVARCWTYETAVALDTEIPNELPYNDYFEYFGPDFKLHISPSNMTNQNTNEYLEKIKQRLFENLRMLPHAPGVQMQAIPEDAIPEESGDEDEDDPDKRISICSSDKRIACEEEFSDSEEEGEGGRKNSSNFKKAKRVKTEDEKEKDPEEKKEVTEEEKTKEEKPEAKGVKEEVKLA
# UniProt Q8TDG4: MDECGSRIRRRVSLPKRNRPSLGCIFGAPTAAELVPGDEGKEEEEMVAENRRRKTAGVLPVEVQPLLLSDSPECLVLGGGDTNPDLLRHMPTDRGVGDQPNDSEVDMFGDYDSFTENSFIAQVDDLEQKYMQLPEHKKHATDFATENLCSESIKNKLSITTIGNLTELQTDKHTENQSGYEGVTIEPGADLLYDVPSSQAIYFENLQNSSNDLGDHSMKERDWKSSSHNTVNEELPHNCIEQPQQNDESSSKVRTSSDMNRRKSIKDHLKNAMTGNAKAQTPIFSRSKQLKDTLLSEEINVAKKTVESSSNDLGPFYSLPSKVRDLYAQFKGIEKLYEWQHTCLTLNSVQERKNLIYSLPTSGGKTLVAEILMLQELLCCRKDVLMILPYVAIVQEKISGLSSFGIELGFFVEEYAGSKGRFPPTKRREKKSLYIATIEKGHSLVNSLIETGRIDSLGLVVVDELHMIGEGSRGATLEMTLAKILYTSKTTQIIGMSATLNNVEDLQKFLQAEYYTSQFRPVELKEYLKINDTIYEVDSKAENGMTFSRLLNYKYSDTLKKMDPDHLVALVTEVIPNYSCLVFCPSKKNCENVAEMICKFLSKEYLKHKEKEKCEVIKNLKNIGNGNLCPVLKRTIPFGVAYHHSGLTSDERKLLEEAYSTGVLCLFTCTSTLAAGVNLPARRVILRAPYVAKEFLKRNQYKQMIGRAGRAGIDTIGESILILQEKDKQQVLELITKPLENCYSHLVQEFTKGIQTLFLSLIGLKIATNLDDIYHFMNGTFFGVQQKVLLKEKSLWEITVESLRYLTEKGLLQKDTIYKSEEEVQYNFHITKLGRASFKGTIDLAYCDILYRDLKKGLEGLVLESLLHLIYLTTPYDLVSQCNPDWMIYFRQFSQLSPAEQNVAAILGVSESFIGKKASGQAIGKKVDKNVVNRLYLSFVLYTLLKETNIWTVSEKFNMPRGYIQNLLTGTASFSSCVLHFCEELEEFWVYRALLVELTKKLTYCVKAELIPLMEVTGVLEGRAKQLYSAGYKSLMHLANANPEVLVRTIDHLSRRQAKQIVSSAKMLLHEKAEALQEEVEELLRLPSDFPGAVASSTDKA
# UniProt Q9H6D7: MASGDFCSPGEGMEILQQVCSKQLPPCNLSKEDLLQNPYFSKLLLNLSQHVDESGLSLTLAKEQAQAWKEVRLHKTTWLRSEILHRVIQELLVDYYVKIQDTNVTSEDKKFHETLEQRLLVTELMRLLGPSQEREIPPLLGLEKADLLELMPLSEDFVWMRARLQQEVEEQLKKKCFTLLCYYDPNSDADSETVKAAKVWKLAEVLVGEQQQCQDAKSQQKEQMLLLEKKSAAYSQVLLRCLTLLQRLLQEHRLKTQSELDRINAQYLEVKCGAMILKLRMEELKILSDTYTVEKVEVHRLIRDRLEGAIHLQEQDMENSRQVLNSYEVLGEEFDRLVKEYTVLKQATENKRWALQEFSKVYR
# UniProt P16401, whole entry, looked up: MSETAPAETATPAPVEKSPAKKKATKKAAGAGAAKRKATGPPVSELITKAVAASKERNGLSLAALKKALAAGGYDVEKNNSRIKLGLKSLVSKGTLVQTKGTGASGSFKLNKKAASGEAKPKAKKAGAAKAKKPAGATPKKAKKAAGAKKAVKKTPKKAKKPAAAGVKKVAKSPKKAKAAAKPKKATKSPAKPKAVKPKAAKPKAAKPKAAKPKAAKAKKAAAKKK
# UniProt P13807: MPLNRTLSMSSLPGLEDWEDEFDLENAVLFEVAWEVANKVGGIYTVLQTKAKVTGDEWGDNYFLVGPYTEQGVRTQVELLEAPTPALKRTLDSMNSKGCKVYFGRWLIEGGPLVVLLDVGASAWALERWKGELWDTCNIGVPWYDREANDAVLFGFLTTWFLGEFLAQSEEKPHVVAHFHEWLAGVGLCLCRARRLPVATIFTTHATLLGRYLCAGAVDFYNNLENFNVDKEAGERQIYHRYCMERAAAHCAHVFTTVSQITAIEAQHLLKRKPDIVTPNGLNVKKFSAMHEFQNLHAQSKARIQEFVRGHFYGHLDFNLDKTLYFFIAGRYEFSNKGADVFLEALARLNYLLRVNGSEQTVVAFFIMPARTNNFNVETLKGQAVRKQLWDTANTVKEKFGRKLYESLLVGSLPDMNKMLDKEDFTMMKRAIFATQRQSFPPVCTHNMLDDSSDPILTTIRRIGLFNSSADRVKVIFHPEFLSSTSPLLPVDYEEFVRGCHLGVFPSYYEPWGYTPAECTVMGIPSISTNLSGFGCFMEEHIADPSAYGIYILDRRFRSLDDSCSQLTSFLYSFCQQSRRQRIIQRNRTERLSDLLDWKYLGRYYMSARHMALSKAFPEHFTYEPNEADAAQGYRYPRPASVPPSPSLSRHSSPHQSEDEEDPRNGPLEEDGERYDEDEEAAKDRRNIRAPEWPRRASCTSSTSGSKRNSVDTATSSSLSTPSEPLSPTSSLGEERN
# UniProt P00390: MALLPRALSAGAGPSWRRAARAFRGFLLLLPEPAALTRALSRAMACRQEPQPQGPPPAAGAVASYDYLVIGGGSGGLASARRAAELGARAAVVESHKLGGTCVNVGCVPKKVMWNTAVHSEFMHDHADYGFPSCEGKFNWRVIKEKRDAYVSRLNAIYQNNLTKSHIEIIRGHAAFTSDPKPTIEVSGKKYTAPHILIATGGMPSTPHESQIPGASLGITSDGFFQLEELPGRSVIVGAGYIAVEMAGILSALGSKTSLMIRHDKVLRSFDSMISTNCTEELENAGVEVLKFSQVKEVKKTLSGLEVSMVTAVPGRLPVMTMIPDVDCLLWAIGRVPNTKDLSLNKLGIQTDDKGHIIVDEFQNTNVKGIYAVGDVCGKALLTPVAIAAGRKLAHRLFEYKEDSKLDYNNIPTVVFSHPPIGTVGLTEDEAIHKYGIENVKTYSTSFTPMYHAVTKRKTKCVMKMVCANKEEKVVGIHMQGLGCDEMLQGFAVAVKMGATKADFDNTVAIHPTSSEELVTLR
# UniProt Q9UBN7: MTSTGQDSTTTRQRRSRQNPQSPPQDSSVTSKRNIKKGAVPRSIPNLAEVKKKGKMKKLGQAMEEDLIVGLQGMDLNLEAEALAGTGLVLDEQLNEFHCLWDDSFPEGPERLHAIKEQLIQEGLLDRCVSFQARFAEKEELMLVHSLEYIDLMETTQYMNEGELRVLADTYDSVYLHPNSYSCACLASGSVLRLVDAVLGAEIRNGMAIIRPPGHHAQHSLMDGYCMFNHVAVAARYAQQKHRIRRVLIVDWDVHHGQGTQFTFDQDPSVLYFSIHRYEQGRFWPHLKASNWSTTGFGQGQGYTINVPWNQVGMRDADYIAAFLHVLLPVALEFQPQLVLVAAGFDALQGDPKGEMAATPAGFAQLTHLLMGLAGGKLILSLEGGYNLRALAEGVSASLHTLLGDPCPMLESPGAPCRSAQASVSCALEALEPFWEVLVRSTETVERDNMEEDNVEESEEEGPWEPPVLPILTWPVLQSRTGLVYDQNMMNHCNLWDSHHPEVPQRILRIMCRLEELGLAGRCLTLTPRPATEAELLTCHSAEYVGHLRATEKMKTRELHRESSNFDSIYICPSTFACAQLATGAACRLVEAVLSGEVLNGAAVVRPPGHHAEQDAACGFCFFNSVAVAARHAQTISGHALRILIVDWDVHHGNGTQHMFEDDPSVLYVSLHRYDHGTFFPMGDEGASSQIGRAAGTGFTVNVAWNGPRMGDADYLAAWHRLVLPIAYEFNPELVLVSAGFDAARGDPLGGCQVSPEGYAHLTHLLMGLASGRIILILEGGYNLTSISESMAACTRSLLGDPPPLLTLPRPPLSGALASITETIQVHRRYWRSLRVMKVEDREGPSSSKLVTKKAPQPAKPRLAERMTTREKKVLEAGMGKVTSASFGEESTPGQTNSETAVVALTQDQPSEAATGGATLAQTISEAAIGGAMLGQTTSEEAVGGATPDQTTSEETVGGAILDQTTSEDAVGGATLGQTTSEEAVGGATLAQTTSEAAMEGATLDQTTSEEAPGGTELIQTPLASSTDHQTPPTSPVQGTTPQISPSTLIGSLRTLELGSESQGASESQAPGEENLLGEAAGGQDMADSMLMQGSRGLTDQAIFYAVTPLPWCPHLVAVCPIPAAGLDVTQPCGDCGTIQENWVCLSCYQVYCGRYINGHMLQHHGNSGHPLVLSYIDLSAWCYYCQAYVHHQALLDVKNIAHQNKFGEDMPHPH
# Some of the results follow.
# Experiments:
# Assay in all cases: log2 fold change, soluble protein after heating vs DMSO (PISA); higher = thermal stabilisation; K562 cells, 10 uM, 30 min; active = over 0.2 and 3.5 SD of the protein, either way, in both replicates (recomputed)
# [1] = compound: CC[C@@H]1C(=O)N(C)c2cnc(Nc3ccc(C(=O)NC4CCN(C)CC4)cc3OC)nc2N1C1CCCC1
# Summary of the method: (§1)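 For each measurement, 10 μM compound was applied for 30 min to K562 cells at 2×10^6 cells/mL. Aliquots were heated for 3 min across 48°C-58°C, pooled, and extracted in PBS with 0.5% NP-40 at 4°C; the supernatant after 21,000xg for 90 min was soluble protein. This was quantified by TMTpro 16plex LC-MS/MS with channel sums equalised, and thermal stability was reported relative to control samples from duplicates, on a log2 fold-change scale.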
# volasertib = compound: CC[C@@H]1C(=O)N(C)c2cnc(Nc3ccc(C(=O)N[C@H]4CC[C@H](N5CCN(CC6CC6)CC5)CC4)cc3OC)nc2N1C(C)C [volasertib]
# Summary of the method: as §1
# [2] = compound: CC[C@H](C)N1C=C(C2=C(C=C(C=C21)C3=CN=C(C=C3)N4CCNCC4)C(=O)NCC5=C(C=C(NC5=O)C)C)C
# Summary of the method: as §1
# epoxomicin = compound: CC[C@H](C)[C@@H](C(=O)N[C@@H]([C@@H](C)O)C(=O)N[C@@H](CC(C)C)C(=O)[C@]1(CO1)C)NC(=O)[C@H]([C@@H](C)CC)N(C)C(=O)C [epoxomicin]
# Summary of the method: as §1
# [3] = compound: CCn1cc(-c2ccnc3[nH]c(-c4cccc(CN(C)C)c4)cc23)c(-c2ccc(NC(=O)N(C)C)cc2)n1
# Summary of the method: as §1
# [4] = compound: CN(C)CC(=O)Nc1ccc2[nH]c(=O)c3ccccc3c2c1
# Summary of the method: as §1
# [5] = compound: CN1C2=C(C3=C1C(=O)N(N=C3)CC4=CC(=CC=C4)N)SC(=C2)S(=O)C
# Summary of the method: as §1
# [6] = compound: CN1CCC(CNc2ccc3ncc(-c4cccc(OC(F)(F)F)c4)n3n2)CC1
# Summary of the method: as §1
# saracatinib = compound: CN1CCN(CCOc2cc(OC3CCOCC3)c3c(Nc4c(Cl)ccc5c4OCO5)ncnc3c2)CC1 [saracatinib]
# Summary of the method: as §1
# sotrastaurin = compound: CN1CCN(c2nc(C3=C(c4c[nH]c5ccccc45)C(=O)NC3=O)c3ccccc3n2)CC1 [sotrastaurin]
# Summary of the method: as §1
# Tubastatin A = compound: CN1CCc2c(c3ccccc3n2Cc2ccc(C(=O)NO)cc2)C1 [Tubastatin A]
# Summary of the method: as §1
# [7] = compound: CNC(=O)C1=CC=CC=C1NC2=NC(=NC=C2Cl)NC3=C(C=C(C=C3)N4CCOCC4)OC
# Summary of the method: as §1
# defactinib = compound: CNC(=O)c1ccc(Nc2ncc(C(F)(F)F)c(NCc3nccnc3N(C)S(C)(=O)=O)n2)cc1 [defactinib]
# Summary of the method: as §1
# rucaparib = compound: CNCc1ccc(-c2[nH]c3cc(F)cc4c3c2CCNC4=O)cc1 [rucaparib]
# Summary of the method: as §1
# [8] = compound: CNc1nc(-c2ccc3c(N)n[nH]c3c2)cc(N2C[C@@H](C(=O)NC3CCCCC3)CC[C@H]2C)n1
# Summary of the method: as §1
# encorafenib = compound: COC(=O)N[C@@H](C)CNc1nccc(-c2cn(C(C)C)nc2-c2cc(Cl)cc(NS(C)(=O)=O)c2F)n1 [encorafenib]
# Summary of the method: as §1
# [9] = compound: COC(=O)[C@H](CCSC)NC(=O)C1=C(C=C(C=C1)NC[C@H](CS)N)C2=CC=CC=C2
# Summary of the method: as §1
# [10] = compound: CCn1c(C(=O)N(C2CC2)C2CC2)cc2c3c(ncn3C)c(Nc3cc(C)n(C)n3)nc21
# Summary of the method: as §1
# rosiglitazone = compound: CN(CCOC1=CC=C(C=C1)C[C@H]2C(=O)NC(=O)S2)C3=CC=CC=N3 (racemic) [rosiglitazone]
# Summary of the method: as §1
# alvocidib = compound: CN1CC[C@H](c2c(O)cc(O)c3c(=O)cc(-c4ccccc4Cl)oc23)[C@H](O)C1 [alvocidib]
# Summary of the method: as §1
Target,log2 fold change [1],log2 fold change (volasertib),log2 fold change [2],log2 fold change (epoxomicin),log2 fold change [3],log2 fold change [4],log2 fold change [5],log2 fold change [6],log2 fold change (saracatinib),log2 fold change (sotrastaurin),log2 fold change (Tubastatin A),log2 fold change [7],log2 fold change (defactinib),log2 fold change (rucaparib),log2 fold change [8],log2 fold change (encorafenib),log2 fold change [9],log2 fold change [10],log2 fold change (rosiglitazone),log2 fold change (alvocidib)
HDAC1 (UniProt Q13547),inactive: -0.025,inactive: -0.216,inactive: 0.037,inactive: -0.006,inactive: 0.019,inactive: 0.011,inactive: 0.001,inactive: -0.043,inactive: -0.004,inactive: -0.026,active: 1.52,inactive: -0.163,inactive: -0.15,inactive: 0.023,inactive: 0.04,inactive: -0.046,inactive: -0.062,–,–,–
HELQ (UniProt Q8TDG4),inactive: 0.104,inactive: 0.134,inactive: 0.099,inactive: 0.051,inactive: 0.056,inactive: 0.084,inactive: -0.036,inactive: 0.056,inactive: 0.115,inactive: 0.039,inactive: -0.043,inactive: 0.005,inactive: 0.025,inactive: -0.009,inactive: -0.155,inactive: -0.021,inactive: 0.047,inactive: 0.004,inactive: -0.11,inactive: -0.124
H4C1 (UniProt P62805),inactive: -0.071,inactive: 0.12,inactive: -0.11,inactive: -0.323,inactive: 0.334,inactive: -0.124,inactive: 0.505,inactive: 0.181,inactive: -0.173,inactive: 0.042,inactive: 0.065,inactive: -0.044,inactive: 0.451,inactive: 0.406,inactive: 0.134,inactive: -0.038,inactive: 0.129,inactive: 0.173,inactive: 0,inactive: 0.105
HAUS4 (UniProt Q9H6D7),inactive: -0.138,inactive: -0.027,inactive: 0.123,inactive: -0.391,inactive: 0.032,inactive: -0.072,inactive: 0.246,inactive: 0.049,inactive: 0.466,inactive: -0.194,inactive: 0.044,inactive: 0.195,inactive: 0.019,inactive: 0.337,inactive: 0.044,inactive: 0.194,inactive: -0.03,–,–,–
H1-5 (UniProt P16401),inactive: 0.156,inactive: 0.396,inactive: -0.002,inactive: -0.334,inactive: 0.203,inactive: -0.114,inactive: 0.321,inactive: 0.305,inactive: -0.134,inactive: -0.06,inactive: 0.03,inactive: 0.041,inactive: 0.291,inactive: 0.317,inactive: 0.133,inactive: 0.122,inactive: -0.007,inactive: -0.076,inactive: -0.163,inactive: 0.301
GYS1 (UniProt P13807),inactive: 0.229,inactive: 0.224,inactive: 0.059,inactive: -0.034,inactive: 0.139,inactive: 0.029,inactive: 0.364,inactive: 0.123,inactive: -0.255,inactive: -0.286,inactive: 0.035,inactive: 0.107,inactive: 0.057,inactive: 0.077,inactive: 0.193,inactive: 0.176,inactive: -0.047,–,–,–
GSR (UniProt P00390),inactive: 0.04,inactive: 0.034,inactive: -0.038,inactive: 0.001,inactive: -0.008,inactive: -0.018,inactive: -0.071,inactive: -0.02,inactive: -0.021,inactive: 0.048,inactive: 0.008,inactive: -0.006,inactive: -0.016,inactive: -0.025,inactive: -0.021,inactive: -0.02,inactive: 0.002,–,–,–
HDAC6 (UniProt Q9UBN7),inactive: 0.013,inactive: 0.005,inactive: 0.014,inactive: -0.069,inactive: -0.157,inactive: 0.068,inactive: 0.058,inactive: -0.04,inactive: -0.067,inactive: -0.013,active: 1.01,inactive: -0.037,inactive: -0.028,inactive: -0.028,inactive: 0.09,inactive: -0.135,inactive: -0.014,–,–,–
